Experimental data taken from patent publication US20140248360A1, “NANOPARTICLE TUMOUR VACCINES” (MIDATECH LIMITED, priority 2011, published 2014).
For part of these data: Part of at least one peptide drawing is inferred or uncertain, most often the ends. For part of these data: At least one read-out could not be matched to a standard name with certainty.

Assays:
[1] = tested on: B3Z (SIINFEKL:Kb-specific T hybridoma); test: B3Z T cell activation (beta-galactosidase) antigen presentation assay; type: cell-based, mouse; conditions: LK^b cells pulsed with peptide, co-incubated with B3Z overnight
[2] = tested on: LK^b cells; test: […] presentation by flow cytometry with 25.D1.16 (Angel) antibody; type: cell-based, mouse; conditions: LK^b cells pulsed with peptide, unpulsed cells as background
[3] = Aggregation and solubility of nanoparticle preparations; type: physicochemical; conditions: first production
Protocol: Samples were bench spun the supernatant removed and the dark pellet dissolved in 2 ml water, and then transferred to a 10 kDa vivaspin for a total of 4 times 2 ml water washes each of 8 min at 5 Krpm. Nanoparticles (NPs) were removed from the vivaspins and made up to 500 μl with water, they were then subjected to 15 Krpm bench spin to remove any large aggregates.
NP's 2-5 were produced by a variation using 75% methanol not 95% in the synthesis stage.

Compound | limit of detection of SIINFEKL presentation [1] | lowest SIINFEKL pulse at which surface SIINFEKL:K^b complexes were detected [2] [ng/mL] | solubilisation of NP aggregates by addition of DMSO [3]
CC[C@H](C)[C@H](NC(=O)[C@@H](NC(=O)[C@@H](N)CO)[C@@H](C)CC)C(=O)N[C@@H](CC(N)=O)C(=O)N[C@@H](Cc1ccccc1)C(=O)N[C@@H](CCC(=O)O)C(=O)N[C@@H](CCCCN)C(=O)N[C@@H](CC(C)C)C(=O)O | approximately 5 ng/mL | 5 | –
NP 3: gold nanoparticle, GlcC2 corona, peptide ligand FLSIINFEKL-N-(CH2)2-SH (QLESIINFEK; gold nanoparticle conjugate via C-terminal thiol linker; UniProt P01012 255-264, looked up, fragment) | – | – | failed to solubilise
